Data source: PubChem BioAssay AID1259405 (NCATS, 2018)

- Screen: 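Knock-downs that lift recombinant protein yield in hamster ovary cells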 (primary screen)
- Cell system: Chinese hamster CHO-K1 ovary cells with stable secreted eGFP expression
- Knock-down reagent: single siRNA against mouse genes, 0.8 pmol siRNA per well (2 µl of 400 nM stock)
- Duration: 3 days
- Measurement: 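Percent of the per-plate non-targeting control median for intracellular GFP per well by laser scanning cytometry and for cell viability by ATP luminescence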
- Direction: GFP, % of control: higher = more GFP per well, higher productivity; viability (ATP), % of control: higher = more viable cells (more ATP)
- Hit rule: 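a knock-down is called active if GFP reaches 120% or more of non-targeting control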
This is an unselected part of about 50,000 deposited reagents. About 4,000 of them (8%) count as active. 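Mouse siRNA library applied to hamster cells; one well for each siRNA.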 The numbers tell different reagents against one gene apart.

For Glra1 #1 the deposit lists GFP, % of control 98.2; viability (ATP), % of control 98; inactive.
Glra1 #2 showed GFP, % of control 55.2; viability (ATP), % of control 60.1; inactive.
After knock-down of Glra1 #3, the screen gave GFP, % of control 63.4; viability (ATP), % of control 54.9; inactive.
Trim61 #1 showed GFP, % of control 97.2; viability (ATP), % of control 76.1; inactive.
After knock-down of Trim61 #2, the record shows GFP, % of control 90.8; viability (ATP), % of control 77.9; inactive.
Trim61 #3 showed GFP, % of control 71.3; viability (ATP), % of control 72; inactive.
Cyc1 #1 gave GFP, % of control 73.7; viability (ATP), % of control 59.4; inactive.
Cyc1 #2 showed GFP, % of control 65.9; viability (ATP), % of control 68.7; inactive.
Silencing of Cyc1 #3 came out at: GFP, % of control 62.6; viability (ATP), % of control 67.2; inactive.

4 neighbouring entries already listed, quoted:
Trim61 #2: GFP, % of control = 90.8; viability (ATP), % of control = 77.9; Call = inactive
Trim61 #3: GFP, % of control = 71.3; viability (ATP), % of control = 72; Call = inactive
Cyc1 #1: GFP, % of control = 73.7; viability (ATP), % of control = 59.4; Call = inactive
Cyc1 #2: GFP, % of control = 65.9; viability (ATP), % of control = 68.7; Call = inactive

Continued:
Against Rpl27a #1, the values are GFP, % of control 22.5; viability (ATP), % of control 26.2; inactive.
Depletion of Rpl27a #2 resulted in: GFP, % of control 102; viability (ATP), % of control 78.3; inactive.
Silencing of Rpl27a #3 resulted in: GFP, % of control 28.9; viability (ATP), % of control 67.9; inactive.
Knock-down of Serpina1e #1 resulted in: GFP, % of control 38.3; viability (ATP), % of control 53; inactive.
For Serpina1e #2 the deposit lists GFP, % of control 57.7; viability (ATP), % of control 61.7; inactive.
Depletion of Serpina1e #3 came out at: GFP, % of control 89.1; viability (ATP), % of control 113; inactive.
Against Prl2a1 #1, the entry reads GFP, % of control 64.8; viability (ATP), % of control 47.3; inactive.
With knock-down of Prl2a1 #2 the results were GFP, % of control 115; viability (ATP), % of control 81.9; inactive.
For Prl2a1 #3, the values are GFP, % of control 67.8; viability (ATP), % of control 89.9; inactive.
After knock-down of Mlf1 #1, the screen gave GFP, % of control 80.8; viability (ATP), % of control 78.6; inactive.
Depletion of Mlf1 #2 came out at: GFP, % of control 112; viability (ATP), % of control 80.4; inactive.
Against Mlf1 #3, the values are GFP, % of control 123; viability (ATP), % of control 122; active.
Ces5a #1 gave GFP, % of control 171; viability (ATP), % of control 126; active.
With knock-down of Ces5a #2, the screen gave GFP, % of control 117; viability (ATP), % of control 94.4; inactive.
Ces5a #3 showed GFP, % of control 74.7; viability (ATP), % of control 41.9; inactive.
Depletion of Agap1 #1 resulted in: GFP, % of control 84.8; viability (ATP), % of control 89; inactive.
Agap1 #2 showed GFP, % of control 80.8; viability (ATP), % of control 80.3; inactive.
Silencing of Agap1 #3 resulted in: GFP, % of control 53.9; viability (ATP), % of control 55.2; inactive.
